Some entries share one result that the patent states for a list of compounds. l = locked nucleic acid (LNA); d = 2'-deoxy (DNA)
The substances below were run on myopia-induced C57BL/6J mice (assay: Example 4: efficacy in myopia-induced mice, delta axial length). Conditions: 1 μM, versus saline, Mann-Whitney U test.
Type: in vivo
Method: The 21 days old C57BL/6J mice were purchased from the National Laboratory Animal Center, Taiwan. All animal experiments were in compliance with the ARVO Statement for the Use of Animals in Ophthalmic and Vision Research. The procedure of myopia induction is described briefly as the following: Right eyes of the 23 days old mice were covered to induce myopia (i.e. nearsightedness) and the left eyes were uncovered. Then the right eyes of the myopia-induced mice were treated with 30 μL of saline (i.e. control group), DNA16mer, DNA17mer, LNA403, LNA404, or LNA405, at 1 μM on 30th, 37th and 44th day. Mice were sacrificed on 51th day and the eyes were collected. The isolated eyes were photographed under a dissection microscope and the axial lengths were measured using […] Myopia (nearsightedness) causes elongation of axial length, which is the major pathological change in myopia. The difference of axial length (i.e. delta axial length) between the covered right eye and the non-covered left eye of the same mouse indicates the severity of myopia. Statistical evaluation was done by using Mann-Whitney U test. Analysis with p-values<0.05 being considered significant.

With “5′-+C*+G*+G*+A*A*G*G*G*C*A*G*A*G*A*G*G*+G*+C*+C*+A-3′ (antisense CGGAAGGGCAGAGAGGGCCA; sugars from the 5' end l4 d12 l4, all phosphorothioate, methylation of C not given here) [LNA403, LNA-modified and PS bond-modified anti-sense miR-328 oligonucleotide, 20 mer]” as the substance, how does the “average delta axial length compared with control animals (in words)” value read?
Its value is “smaller than that in control animals”.

With “5′-+G*+A*+A*+G*G*G*C*A*G*A*G*A*G*G*+G*+C*+C*+A-3′ (antisense GAAGGGCAGAGAGGGCCA; sugars from the 5' end l4 d10 l4, all phosphorothioate, methylation of C not given here) [LNA405, LNA-modified and PS bond-modified anti-sense miR-328 oligonucleotide, 18 mer]” as the substance, how does the “average delta axial length compared with control animals (in words)” value read?
The value was “smaller than that in control animals”.

With “5′-+G*+G*+A*+A*G*G*G*C*A*G*A*G*A*G*G*+G*+C*+C*+A-3′ (antisense GGAAGGGCAGAGAGGGCCA; sugars from the 5' end l4 d11 l4, all phosphorothioate, methylation of C not given here) [LNA404, LNA-modified and PS bond-modified anti-sense miR-328 oligonucleotide, 19 mer]” as the substance, how does the “average delta axial length compared with control animals (in words)” value read?
Its value is “smaller than that in control animals”.
